Experimental data reported in patent publication US11118200B2, “Method for preparing amines from aldehydes and ketones by biocatalysis” (COMMISSARIAT A L'ENERGIE ATOMIQUE ET AUX ENERGIES …, priority 2017, dated 2021).

Assays:
enzyme of SEQ ID NO:1 [1] = experiment: Semi-preparative-scale reductive amination (1 mmol) with ammonia as amine source; type: biochemical, Mycobacterium smegmatis; conditions: chiral GC-FID
enzyme of SEQ ID NO:2 [2] = experiment: Reductive amination on 9 μmol scale, configuration of the amine product (UHPLC-UV-MS, chiral GC-FID); type: biochemical, Cystobacter fuscus DSM 2262; conditions: 30 mM carbonyl-containing compound; 0.5 mg/ml enzyme; 48 h at 30° C.; ammonia as amine source
enzyme of SEQ ID NO:2 [3] = experiment: Semi-preparative-scale reductive amination (1 mmol) with ammonia as amine source; type: biochemical, Cystobacter fuscus DSM 2262; conditions: enzyme loading 0.5 mg/mL
enzyme of SEQ ID NO:1 [4] = experiment: Reductive amination on 9 μmol scale, configuration of the amine product (UHPLC-UV-MS, chiral GC-FID); type: biochemical, Mycobacterium smegmatis; conditions: 30 mM carbonyl-containing compound; 0.5 mg/ml enzyme; 48 h at 30° C.; ammonia as amine source

SMILES	cis/trans product ratio, SEQ ID NO: 1 (enzyme of SEQ ID NO:1 [1])	ed of the amine obtained, SEQ ID NO: 1 (enzyme of SEQ ID NO:1 [1]) [%]	enantiomeric excess of the (S)-amine formed, enzyme of SEQ ID NO:2 (enzyme of SEQ ID NO:2 [2])	Conversion, SEQ ID NO: 2 (enzyme of SEQ ID NO:2 [3]; 50 mM carbonyl-containing compound, 30° C.) [%]	TTN (total turnover), SEQ ID NO: 2 (enzyme of SEQ ID NO:2 [3])	enantiomeric excess of the (S)-amine formed, enzyme of SEQ ID NO:1 (enzyme of SEQ ID NO:1 [4])
C[C@@H]1CCCC[C@@H]1N.Cl [(1S, 2R)-2-methylcyclohexylamine hydrochloride]	90/10	≥ 99				
CCCC(C)=O [pentan-2-one]			98% and > 97%	57	3016	98% and > 97%

“And” between values parts separate entries of the source, which are not always exact repeats. Identical values can stand only once.
